Measured values as given in publication PMC5404846.
These are yes or no findings as the source states them, for the method shown. For some of these results: Binding calls can cover weak binding; strength is not graded here.

T1: MEDIATOR18 (Arabidopsis thaliana (Col-0 cDNA)) (UniProt Q9SJZ6)
T1 sequence: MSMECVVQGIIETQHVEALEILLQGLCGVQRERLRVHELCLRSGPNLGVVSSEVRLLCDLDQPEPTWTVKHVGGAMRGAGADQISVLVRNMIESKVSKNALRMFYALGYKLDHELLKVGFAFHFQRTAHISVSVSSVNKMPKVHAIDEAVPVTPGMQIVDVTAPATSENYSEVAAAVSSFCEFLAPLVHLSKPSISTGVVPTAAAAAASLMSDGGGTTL

T2: MEDIATOR21 (Arabidopsis thaliana (Col-0 cDNA)) (UniProt C0LU16)
T2 sequence: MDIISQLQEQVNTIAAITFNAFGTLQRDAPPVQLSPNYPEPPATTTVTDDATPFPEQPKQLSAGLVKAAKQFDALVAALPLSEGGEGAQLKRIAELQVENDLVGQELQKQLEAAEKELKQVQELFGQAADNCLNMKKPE

T3: MEDIATOR8 (Arabidopsis thaliana (Col-0 cDNA)) (UniProt Q4V3C1)
T3 sequence: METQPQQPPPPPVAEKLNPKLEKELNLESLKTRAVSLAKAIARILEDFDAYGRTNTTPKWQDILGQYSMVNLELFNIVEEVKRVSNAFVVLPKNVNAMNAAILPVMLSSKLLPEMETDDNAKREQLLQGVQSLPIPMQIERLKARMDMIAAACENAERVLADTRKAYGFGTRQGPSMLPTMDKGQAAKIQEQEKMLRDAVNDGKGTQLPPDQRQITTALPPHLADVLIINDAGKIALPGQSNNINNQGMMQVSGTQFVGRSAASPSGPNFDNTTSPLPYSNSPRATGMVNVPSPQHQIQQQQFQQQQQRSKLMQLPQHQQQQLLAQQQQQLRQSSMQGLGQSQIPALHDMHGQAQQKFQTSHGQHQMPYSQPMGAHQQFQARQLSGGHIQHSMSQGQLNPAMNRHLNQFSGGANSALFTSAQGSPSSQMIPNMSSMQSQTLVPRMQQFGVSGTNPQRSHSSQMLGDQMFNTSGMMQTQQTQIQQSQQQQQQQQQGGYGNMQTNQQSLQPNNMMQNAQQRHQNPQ


Experiments:
Experiment in all cases: two-hybrid; GAL4 DNA-binding domain baits (pDEST32) and GAL4 activation domain preys (pDEST22) co-transformed into S. cerevisiae MaV203; serial dilutions plated on SC-Leu-Trp and on SC-Leu-Trp-His with 12.5 mM 3-aminotriazole; repeated with separate transformations
[1] = biological target: T1, MEDIATOR18 (Arabidopsis thaliana (Col-0 cDNA))
[2] = biological target: T2, MEDIATOR21 (Arabidopsis thaliana (Col-0 cDNA))
[3] = biological target: T3, MEDIATOR8 (Arabidopsis thaliana (Col-0 cDNA))
[4] = biological target: MEDIATOR20 (Arabidopsis thaliana (Col-0 cDNA))

| binding [1] | binding [2] | binding [3] | binding [4] | Molecule |
| --- | --- | --- | --- | --- |
| binds | no binding | no binding | – | MEDIATOR20 (Arabidopsis thaliana (Col-0 cDNA)) |
| – | – | – | binds | MEDIATOR18 (protein, UniProt Q9SJZ6 1-219) MSMECVVQGIIETQHVEALEILLQGLCGVQRERLRVHELCLRSGPNLGVVSSEVRLLCDLDQPEPTWTVKHVGGAMRGAGADQISVLVRNMIESKVSKNALRMFYALGYKLDHELLKVGFAFHFQRTAHISVSVSSVNKMPKVHAIDEAVPVTPGMQIVDVTAPATSENYSEVAAAVSSFCEFLAPLVHLSKPSISTGVVPTAAAAAASLMSDGGGTTL |
